According to patent publication US20230322822A1, “ARYL PHOSPHOROUS OXIDE COMPOUNDS AND USE THEREOF” (Chengdu Di'ao Jiuhong Pharmaceutical Factory, priority 2020, published 2023):
At least one compound was matched to its structure with a doubt left.

What was measured:
[1] = system: BaF3 EGFR-DTC(C797S/T790M/Del19) cells; assay: In-vivo pharmacodynamic study, transplanted tumor model of BaF3 EGFR-DTC(C797S/T790M/Del19) cells in nude mice; parameters: species or system BALB/c nude mice; conditions: compound 2 and Brigatinib 25 and 50 mg/kg, compound 33 25 mg/kg
Protocol: (§1) The models used in this test were subcutaneous transplanted tumor models of engineered BaF3 EGFR-DTC(C797S/T790M/Del19) cells in BALB/c nude mice. The engineered BaF3 cells were cultured in vitro suspension. […] Passages were treated twice a week. When the cell number reached requirement, the cells were collected, counted and inoculated. 0.2 mL (10^6) cells (added with matrigel, 1:1 by volume) were subcutaneously inoculated in the right back of each mouse, and divided into groups for administration with 6 mice per group when the mean tumor volume reached 109 mm^3. […]
(§2) General conditions such as spirit, activity, food intake and the like of the mice were observed every day, and the weight was measured thrice every week; the short diameter (a) and the long diameter (b) of each mouse tumor were measured thrice a week with a vernier caliper, and the tumor volume was calculated according to the formula (a^2×b)/2. The Relative Tumor Volume (RTV) was calculated from the measured tumor volume, wherein RTV=Vt/V0, wherein V0 was the tumor volume at random grouping (i.e., d0) and Vt was the tumor volume at each measurement (i.e., dn). The relative tumor proliferation rate of the evaluation index of the anti-tumor activity was calculated according to the following formula: relative tumor proliferation rate T/C (%): […]

[2] = system: BaF3 EML-4-ALK-L1196M cells; assay: In-vivo pharmacodynamic study, transplanted tumor model of BaF3 EML-4-ALK-L1196M cells in nude mice; parameters: species or system BALB/c nude mice; conditions: compound 2 50 mg/kg, compound 6 60 mg/kg, compound 14 80 mg/kg
Protocol: as §1, with “EML-4-ALK-L1196M” for “EGFR-DTC(C797S/T790M/Del19)”, “(10^6) of” for “(10^6)”, “dosing” for “administration”, “128” for “109”
as §2

[3] = system: NCI-H1975 EGFR DTC(C797S/T790M/Del19) cells; assay: In vivo pharmacodynamic study, subcutaneously implanted tumor NCI-H1975 EGFR DTC(C797S/T790M/Del19) (two-sided model); parameters: species or system BALB/c nude mouse; conditions: compound 2 20 and 40 mg/kg, Crizotinib 50 mg/kg
Protocol: Passages were treated twice a week. When the cell number reached requirement, the cells were collected, counted and inoculated.
Administration mode and frequency: oral gavage was carried out with an administration volume of 10 mL/kg, and the model group was administered with the same volume of solvent. The administration was once per day and continuously carried out for 16 days.
as §2
Note: TRTV: treatment group RTV; CRTV model control group RTV.

Measured: Effect on tumor growth (in words)

COc1cc(N2CCC(N3CCN(C)CC3)CC2)c(C)cc1Nc1ncc(Br)c(Nc2ccc(C)cc2P(C)(C)=O)n1 [Compound 2]
obviously inhibit the tumor growth: all assays above
